Results from the supplement of paper PMC10849652.
The list shows a part of the results.

Sequences of proteins named here, by UniProt entry; tags and fusion partners are left off. A change or cut given only in a name is not applied to a line headed by its entry.
UniProt Q9UPU9: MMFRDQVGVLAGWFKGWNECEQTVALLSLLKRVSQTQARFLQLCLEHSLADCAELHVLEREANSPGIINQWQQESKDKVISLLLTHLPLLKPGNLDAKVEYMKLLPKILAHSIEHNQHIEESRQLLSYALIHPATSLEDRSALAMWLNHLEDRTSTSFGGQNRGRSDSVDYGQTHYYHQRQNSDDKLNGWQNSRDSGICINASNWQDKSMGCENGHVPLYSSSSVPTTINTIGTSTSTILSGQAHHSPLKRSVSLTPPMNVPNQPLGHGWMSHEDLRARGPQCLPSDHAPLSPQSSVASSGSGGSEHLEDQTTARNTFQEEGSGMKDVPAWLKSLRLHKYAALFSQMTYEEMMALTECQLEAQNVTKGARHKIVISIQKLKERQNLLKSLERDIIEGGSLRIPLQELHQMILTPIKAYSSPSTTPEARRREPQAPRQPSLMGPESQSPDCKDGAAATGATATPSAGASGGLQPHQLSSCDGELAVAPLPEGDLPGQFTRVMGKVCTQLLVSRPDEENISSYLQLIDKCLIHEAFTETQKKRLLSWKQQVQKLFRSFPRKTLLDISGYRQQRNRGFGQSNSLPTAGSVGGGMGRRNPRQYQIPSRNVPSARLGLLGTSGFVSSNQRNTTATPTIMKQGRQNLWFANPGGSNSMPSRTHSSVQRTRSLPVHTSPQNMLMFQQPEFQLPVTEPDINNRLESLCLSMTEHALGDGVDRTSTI
UniProt O95969: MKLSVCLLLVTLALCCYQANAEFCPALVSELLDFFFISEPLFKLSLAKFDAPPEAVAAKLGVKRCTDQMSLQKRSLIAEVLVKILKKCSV
UniProt Q86WG5: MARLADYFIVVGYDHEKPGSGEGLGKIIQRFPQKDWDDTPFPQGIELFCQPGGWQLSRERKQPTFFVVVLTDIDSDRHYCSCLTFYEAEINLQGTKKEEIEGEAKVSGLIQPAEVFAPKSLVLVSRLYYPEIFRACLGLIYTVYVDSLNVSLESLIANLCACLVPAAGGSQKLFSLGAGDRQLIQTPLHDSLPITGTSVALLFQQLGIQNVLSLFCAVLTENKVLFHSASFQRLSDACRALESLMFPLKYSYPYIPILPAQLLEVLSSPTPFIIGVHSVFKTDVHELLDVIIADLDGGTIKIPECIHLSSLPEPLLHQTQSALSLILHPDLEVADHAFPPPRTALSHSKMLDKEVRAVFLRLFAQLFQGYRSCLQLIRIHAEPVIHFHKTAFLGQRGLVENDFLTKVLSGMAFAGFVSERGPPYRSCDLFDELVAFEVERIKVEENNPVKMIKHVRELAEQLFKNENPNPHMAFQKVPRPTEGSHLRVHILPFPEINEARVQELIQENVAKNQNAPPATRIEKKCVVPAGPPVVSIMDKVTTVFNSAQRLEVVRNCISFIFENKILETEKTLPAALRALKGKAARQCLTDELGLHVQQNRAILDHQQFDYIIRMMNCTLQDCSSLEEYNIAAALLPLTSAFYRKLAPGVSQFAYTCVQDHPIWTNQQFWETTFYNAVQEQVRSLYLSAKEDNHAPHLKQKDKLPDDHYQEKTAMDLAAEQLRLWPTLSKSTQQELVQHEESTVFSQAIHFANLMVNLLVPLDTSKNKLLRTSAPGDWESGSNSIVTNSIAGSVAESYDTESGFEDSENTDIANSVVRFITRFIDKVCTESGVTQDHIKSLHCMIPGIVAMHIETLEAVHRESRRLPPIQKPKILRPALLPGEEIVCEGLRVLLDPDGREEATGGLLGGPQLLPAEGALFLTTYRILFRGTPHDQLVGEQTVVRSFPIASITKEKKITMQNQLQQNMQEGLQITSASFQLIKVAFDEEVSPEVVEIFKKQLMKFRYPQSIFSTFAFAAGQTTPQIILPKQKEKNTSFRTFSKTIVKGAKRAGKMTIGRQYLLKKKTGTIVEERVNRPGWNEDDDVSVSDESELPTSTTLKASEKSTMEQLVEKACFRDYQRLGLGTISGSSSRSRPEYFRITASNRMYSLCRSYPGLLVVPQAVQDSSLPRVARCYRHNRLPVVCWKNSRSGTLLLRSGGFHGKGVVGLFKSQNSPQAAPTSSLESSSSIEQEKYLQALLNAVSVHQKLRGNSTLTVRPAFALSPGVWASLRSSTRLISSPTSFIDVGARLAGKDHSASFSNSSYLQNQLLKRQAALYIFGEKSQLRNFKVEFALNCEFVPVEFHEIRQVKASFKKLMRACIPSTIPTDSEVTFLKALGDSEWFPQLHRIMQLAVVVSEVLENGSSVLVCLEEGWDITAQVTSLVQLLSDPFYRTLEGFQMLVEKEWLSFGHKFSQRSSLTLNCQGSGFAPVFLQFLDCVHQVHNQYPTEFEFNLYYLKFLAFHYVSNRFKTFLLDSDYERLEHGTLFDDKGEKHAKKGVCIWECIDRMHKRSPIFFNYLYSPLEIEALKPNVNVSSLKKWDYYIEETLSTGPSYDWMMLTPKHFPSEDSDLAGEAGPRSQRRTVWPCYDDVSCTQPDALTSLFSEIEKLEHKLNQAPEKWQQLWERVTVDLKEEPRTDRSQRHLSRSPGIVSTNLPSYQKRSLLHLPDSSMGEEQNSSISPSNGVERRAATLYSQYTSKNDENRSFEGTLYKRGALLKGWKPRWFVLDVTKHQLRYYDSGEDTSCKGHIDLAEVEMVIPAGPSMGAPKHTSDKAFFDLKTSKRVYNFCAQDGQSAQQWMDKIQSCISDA
UniProt O14521: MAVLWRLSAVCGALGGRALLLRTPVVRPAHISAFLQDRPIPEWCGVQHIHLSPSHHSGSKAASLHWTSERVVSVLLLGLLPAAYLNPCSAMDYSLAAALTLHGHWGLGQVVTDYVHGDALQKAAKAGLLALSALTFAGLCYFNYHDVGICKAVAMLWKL
UniProt P29034: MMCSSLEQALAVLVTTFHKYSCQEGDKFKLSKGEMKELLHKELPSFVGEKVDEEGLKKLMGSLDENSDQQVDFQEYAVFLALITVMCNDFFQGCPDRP
UniProt Q96FQ6: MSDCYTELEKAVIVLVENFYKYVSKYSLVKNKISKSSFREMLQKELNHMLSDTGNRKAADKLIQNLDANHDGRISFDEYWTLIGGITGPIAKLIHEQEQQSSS
UniProt Q14160: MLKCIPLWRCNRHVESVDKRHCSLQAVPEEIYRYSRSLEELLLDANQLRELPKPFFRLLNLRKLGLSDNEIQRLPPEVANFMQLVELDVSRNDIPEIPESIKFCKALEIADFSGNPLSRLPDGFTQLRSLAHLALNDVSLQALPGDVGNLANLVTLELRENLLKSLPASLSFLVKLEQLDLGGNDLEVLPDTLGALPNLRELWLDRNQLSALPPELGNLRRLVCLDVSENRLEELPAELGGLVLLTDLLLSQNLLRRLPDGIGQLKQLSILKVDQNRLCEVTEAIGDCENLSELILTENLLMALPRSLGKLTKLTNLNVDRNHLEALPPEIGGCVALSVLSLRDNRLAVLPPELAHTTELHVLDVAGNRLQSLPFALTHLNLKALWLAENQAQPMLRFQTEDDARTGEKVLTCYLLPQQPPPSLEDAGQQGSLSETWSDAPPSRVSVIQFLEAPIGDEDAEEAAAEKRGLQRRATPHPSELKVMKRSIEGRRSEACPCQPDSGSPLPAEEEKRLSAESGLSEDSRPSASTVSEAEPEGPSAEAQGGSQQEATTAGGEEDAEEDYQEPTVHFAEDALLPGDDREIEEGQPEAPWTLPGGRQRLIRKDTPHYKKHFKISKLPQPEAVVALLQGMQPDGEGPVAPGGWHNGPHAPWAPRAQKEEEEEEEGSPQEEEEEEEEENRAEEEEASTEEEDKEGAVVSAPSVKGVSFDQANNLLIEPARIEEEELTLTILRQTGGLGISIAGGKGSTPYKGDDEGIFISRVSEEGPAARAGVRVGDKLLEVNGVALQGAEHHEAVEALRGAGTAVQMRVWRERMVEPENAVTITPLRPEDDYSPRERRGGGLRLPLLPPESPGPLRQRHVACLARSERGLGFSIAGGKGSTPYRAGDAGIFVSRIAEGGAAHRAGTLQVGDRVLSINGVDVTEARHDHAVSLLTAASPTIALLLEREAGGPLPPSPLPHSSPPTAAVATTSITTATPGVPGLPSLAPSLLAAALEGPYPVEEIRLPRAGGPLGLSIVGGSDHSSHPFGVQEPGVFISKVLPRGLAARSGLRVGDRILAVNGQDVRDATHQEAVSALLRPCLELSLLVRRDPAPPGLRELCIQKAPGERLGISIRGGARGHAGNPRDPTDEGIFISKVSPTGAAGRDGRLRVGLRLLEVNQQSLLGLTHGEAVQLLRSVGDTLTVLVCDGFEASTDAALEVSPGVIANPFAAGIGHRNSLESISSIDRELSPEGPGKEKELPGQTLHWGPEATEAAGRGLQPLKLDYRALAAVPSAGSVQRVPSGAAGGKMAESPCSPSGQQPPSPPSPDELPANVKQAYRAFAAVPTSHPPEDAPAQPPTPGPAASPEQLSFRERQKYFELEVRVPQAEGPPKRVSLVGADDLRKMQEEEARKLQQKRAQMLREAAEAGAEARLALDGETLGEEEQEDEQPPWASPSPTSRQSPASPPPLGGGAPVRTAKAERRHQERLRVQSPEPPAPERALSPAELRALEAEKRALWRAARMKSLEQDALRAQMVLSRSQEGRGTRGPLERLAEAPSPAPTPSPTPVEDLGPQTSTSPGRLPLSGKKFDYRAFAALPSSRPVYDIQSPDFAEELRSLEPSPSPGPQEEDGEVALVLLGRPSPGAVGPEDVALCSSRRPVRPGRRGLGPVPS
UniProt Q8N9R8: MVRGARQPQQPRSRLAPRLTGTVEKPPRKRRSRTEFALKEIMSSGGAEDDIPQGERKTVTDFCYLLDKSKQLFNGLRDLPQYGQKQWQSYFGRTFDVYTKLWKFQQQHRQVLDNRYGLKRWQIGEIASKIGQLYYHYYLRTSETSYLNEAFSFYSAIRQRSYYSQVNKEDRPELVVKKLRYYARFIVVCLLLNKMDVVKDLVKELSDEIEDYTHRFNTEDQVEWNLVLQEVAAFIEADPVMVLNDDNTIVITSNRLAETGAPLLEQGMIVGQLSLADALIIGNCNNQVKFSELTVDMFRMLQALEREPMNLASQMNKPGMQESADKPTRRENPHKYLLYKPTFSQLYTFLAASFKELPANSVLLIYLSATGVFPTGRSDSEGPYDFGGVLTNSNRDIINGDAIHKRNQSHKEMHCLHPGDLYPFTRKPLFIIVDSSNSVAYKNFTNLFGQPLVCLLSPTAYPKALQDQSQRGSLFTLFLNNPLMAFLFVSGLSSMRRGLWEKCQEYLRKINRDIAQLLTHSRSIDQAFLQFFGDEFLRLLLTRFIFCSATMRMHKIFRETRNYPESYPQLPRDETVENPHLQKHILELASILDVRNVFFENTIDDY
UniProt Q96IW7: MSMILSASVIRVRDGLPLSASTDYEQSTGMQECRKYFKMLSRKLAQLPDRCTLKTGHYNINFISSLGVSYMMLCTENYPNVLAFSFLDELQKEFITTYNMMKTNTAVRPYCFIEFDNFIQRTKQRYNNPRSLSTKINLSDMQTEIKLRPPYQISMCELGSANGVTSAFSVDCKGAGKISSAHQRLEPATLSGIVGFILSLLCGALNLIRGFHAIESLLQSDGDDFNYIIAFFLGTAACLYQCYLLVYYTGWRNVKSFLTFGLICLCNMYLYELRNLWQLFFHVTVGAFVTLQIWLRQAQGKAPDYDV
UniProt Q9HCY8: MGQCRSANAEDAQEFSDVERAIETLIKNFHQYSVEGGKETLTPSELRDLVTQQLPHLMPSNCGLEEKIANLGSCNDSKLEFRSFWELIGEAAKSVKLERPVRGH
UniProt A6ZKI3: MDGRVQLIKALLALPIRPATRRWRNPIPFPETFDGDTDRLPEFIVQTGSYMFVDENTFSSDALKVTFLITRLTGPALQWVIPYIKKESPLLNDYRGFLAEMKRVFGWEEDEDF
UniProt Q8IZE3: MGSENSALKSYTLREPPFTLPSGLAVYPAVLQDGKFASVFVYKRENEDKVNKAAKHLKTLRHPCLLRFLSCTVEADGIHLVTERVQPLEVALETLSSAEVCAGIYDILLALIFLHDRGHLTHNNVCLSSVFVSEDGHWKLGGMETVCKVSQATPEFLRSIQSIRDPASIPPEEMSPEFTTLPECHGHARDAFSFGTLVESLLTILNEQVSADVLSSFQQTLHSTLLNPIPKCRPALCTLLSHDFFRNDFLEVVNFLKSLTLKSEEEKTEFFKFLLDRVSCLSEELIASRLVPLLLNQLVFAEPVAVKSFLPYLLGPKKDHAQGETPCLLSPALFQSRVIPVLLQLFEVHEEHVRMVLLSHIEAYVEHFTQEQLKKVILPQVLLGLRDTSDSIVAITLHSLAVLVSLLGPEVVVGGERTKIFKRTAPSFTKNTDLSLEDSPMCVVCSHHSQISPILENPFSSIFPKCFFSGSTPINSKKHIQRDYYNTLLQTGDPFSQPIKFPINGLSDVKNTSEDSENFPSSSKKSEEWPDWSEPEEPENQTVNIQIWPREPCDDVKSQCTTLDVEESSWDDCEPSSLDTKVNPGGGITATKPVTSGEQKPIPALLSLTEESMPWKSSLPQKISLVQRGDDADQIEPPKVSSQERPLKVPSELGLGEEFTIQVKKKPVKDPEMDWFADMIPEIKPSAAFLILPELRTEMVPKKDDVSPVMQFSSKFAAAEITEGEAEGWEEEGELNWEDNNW

Each target was assayed with C[C@H](Nc1ncnc2nc[nH]c12)c1cc2cccc(Cl)c2c(=O)n1-c1ccccc1 [duvelisib] (assay: log2 fold change, soluble protein after heating vs DMSO (PISA); higher = thermal stabilisation; K562 cells, 10 uM, 30 min; active = over 0.2 and 3.5 SD of the protein, either way, in both replicates (recomputed)).
Procedure, shortened: (§1)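 Values are thermal stability changes relative to control samples and are taken from duplicates. They are stated as log2 fold changes. Before quantification by TMTpro 16plex LC-MS/MS with equalised channel sums, K562 cells at 2×10^6 cells/mL were treated with 10 μM compound for 30 min, heated in aliquots for 3 min across 48°C-58°C, pooled, extracted in PBS with 0.5% NP-40 at 4°C, and centrifuged at 21,000xg for 90 min to give the soluble supernatant.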
In the case of SAMD4A (UniProt Q9UPU9), the log2 fold change is reported as inactive: -0.062. With SCGB1D2 (UniProt O95969) the log2 fold change was inactive: -0.015. In the case of SBF2 (UniProt Q86WG5), the log2 fold change is reported as inactive: 0.051. For SDHD (UniProt O14521), the log2 fold change was inactive: 0.161. SDHB, A0A087WXX8 was tested, and the log2 fold change was inactive: 0.143. RTN4 isoform 5 (UniProt Q9NQC3) was tested, and the log2 fold change was inactive: 0.41. For RTL10 (UniProt Q7L3V2), the log2 fold change was inactive: -0.048. With S100A2 (UniProt P29034) the log2 fold change was inactive: -0.062. With SCN4A (UniProt P35499) the log2 fold change was inactive: 0.035. S100A16 (UniProt Q96FQ6) was tested, and the log2 fold change was inactive: -0.122. SCRIB isoform 3 (UniProt Q14160) was tested, and the log2 fold change was inactive: 0.154. For SCAI isoform 2 (UniProt Q8N9R8), the log2 fold change was inactive: 0.056. SEC22A (UniProt Q96IW7) was tested, and the log2 fold change was inactive: -0.055. For S100A14 (UniProt Q9HCY8), the log2 fold change was inactive: -0.357. RTL8C (UniProt A6ZKI3) was tested, and the log2 fold change was inactive: 0.097.

What follows are targets tested with Cc1cc(Nc2cc(CN3CCOCC3)c3nc(C)c(Cc4ccc(Cl)cc4F)n3n2)n[nH]1 [gandotinib] in the same assay as above.
Procedure, shortened: as §1
With SAP130 isoform 3 (UniProt Q9H0E3) the log2 fold change was inactive: 0.024. In the case of SDCBP isoform 2 (UniProt O00560), the log2 fold change is reported as inactive: 0.058. With SBF2 (UniProt Q86WG5) the log2 fold change was inactive: 0.069. In the case of SCYL3 isoform 2 (UniProt Q8IZE3), the log2 fold change is reported as inactive: -0.069. SCAMP2 (UniProt O15127) was tested, and the log2 fold change was inactive: 0.034. With SDHD (UniProt O14521) the log2 fold change was inactive: -0.043. RRP36 (UniProt Q96EU6) was tested, and the log2 fold change was inactive: 0.182. With SDHB, A0A087WXX8 the log2 fold change was inactive: -0.152. RTN4 isoform 5 (UniProt Q9NQC3) was tested, and the log2 fold change was inactive: -0.122. RTL10 (UniProt Q7L3V2) was tested, and the log2 fold change was inactive: 0.084. In the case of RXRG (UniProt P48443), the log2 fold change is reported as inactive: -0.176. In the case of SDF2 (UniProt Q99470), the log2 fold change is reported as inactive: 0.18. With SCRIB isoform 3 (UniProt Q14160) the log2 fold change was inactive: -0.129. S100A10 (UniProt P60903) was tested, and the log2 fold change was inactive: 0.131. For SEC22A (UniProt Q96IW7), the log2 fold change was inactive: 0.115. For SDC3 (UniProt O75056), the log2 fold change was inactive: -0.193. With SATB2 (UniProt Q9UPW6) the log2 fold change was inactive: -0.615. RTL8C (UniProt A6ZKI3) was tested, and the log2 fold change was inactive: -0.051.

Each target was assayed with Cc1cc(Nc2cc(N3CCN(C)CC3)nc(Sc3ccc(NC(=O)C4CC4)cc3)n2)n[nH]1 [tozasertib] in the same assay as above.
Procedure, shortened: as §1
With SAMD4A (UniProt Q9UPU9) the log2 fold change was inactive: -0.405. For SCGB1D2 (UniProt O95969), the log2 fold change was inactive: 0.152. SDHD (UniProt O14521) was tested, and the log2 fold change was inactive: 0.037. With RTN4 isoform 5 (UniProt Q9NQC3) the log2 fold change was inactive: -0.194. With RTL10 (UniProt Q7L3V2) the log2 fold change was inactive: 0.064. With RXRG (UniProt P48443) the log2 fold change was inactive: 0.411. With SDF2 (UniProt Q99470) the log2 fold change was inactive: 0.015. SAV1 (UniProt Q9H4B6) was tested, and the log2 fold change was inactive: -0.1. With S100A2 (UniProt P29034) the log2 fold change was inactive: -0.057. For S100A16 (UniProt Q96FQ6), the log2 fold change was inactive: 0.065. In the case of SCRIB isoform 3 (UniProt Q14160), the log2 fold change is reported as inactive: -0.099. In the case of SEC22A (UniProt Q96IW7), the log2 fold change is reported as inactive: 0.017. For S100A14 (UniProt Q9HCY8), the log2 fold change was inactive: 0.149. RSL24D1 (UniProt Q9UHA3) was tested, and the log2 fold change was inactive: 0.129.

These targets were tested with Cc1cc(SCc2sc(-c3ccc(C(F)(F)F)cc3)nc2C)ccc1OCC(=O)O in the same assay as above.
Procedure, shortened: as §1
SDCBP isoform 2 (UniProt O00560) was tested, and the log2 fold change was inactive: 0.069. For SAMD4A (UniProt Q9UPU9), the log2 fold change was inactive: -0.51. For SCGB1D2 (UniProt O95969), the log2 fold change was inactive: -0.029. For SBF2 (UniProt Q86WG5), the log2 fold change was inactive: -0.198. SCYL3 isoform 2 (UniProt Q8IZE3) was tested, and the log2 fold change was inactive: -0.024. For SCAMP2 (UniProt O15127), the log2 fold change was inactive: -0.065. In the case of SDHD (UniProt O14521), the log2 fold change is reported as inactive: -0.054. For RRP36 (UniProt Q96EU6), the log2 fold change was inactive: 0.022. SDHB, A0A087WXX8 was tested, and the log2 fold change was inactive: 0.055. With RTN4 isoform 5 (UniProt Q9NQC3) the log2 fold change was inactive: 0.12. In the case of RTL10 (UniProt Q7L3V2), the log2 fold change is reported as inactive: -0.028. S100A2 (UniProt P29034) was tested, and the log2 fold change was inactive: -0.224. With SCN4A (UniProt P35499) the log2 fold change was inactive: -0.204. In the case of S100A16 (UniProt Q96FQ6), the log2 fold change is reported as inactive: -0.064. SCRIB isoform 3 (UniProt Q14160) was tested, and the log2 fold change was inactive: 0.012. For SCAI isoform 2 (UniProt Q8N9R8), the log2 fold change was inactive: -0.206. SEC22A (UniProt Q96IW7) was tested, and the log2 fold change was inactive: -0.184. For SDC3 (UniProt O75056), the log2 fold change was inactive: -0.19. For S100A14 (UniProt Q9HCY8), the log2 fold change was inactive: -0.207. RTL8C (UniProt A6ZKI3) was tested, and the log2 fold change was inactive: 0.072.

Each target was assayed with Cc1ccc(-n2nc(C(C)(C)C)cc2NC(=O)Nc2ccc(OCCN3CCOCC3)c3ccccc23)cc1 [doramapimod] in the same assay as above.
Procedure, shortened: as §1
For SAP130 isoform 3 (UniProt Q9H0E3), the log2 fold change was inactive: 0.106. With SAMD4A (UniProt Q9UPU9) the log2 fold change was inactive: 0.049. In the case of SAFB2 (UniProt K7EQU4), the log2 fold change is reported as inactive: -0.04. SCYL3 isoform 2 (UniProt Q8IZE3) was tested, and the log2 fold change was inactive: -0.01. S100A4 (UniProt P26447) was tested, and the log2 fold change was inactive: -0.023. With RTN4 isoform 5 (UniProt Q9NQC3) the log2 fold change was inactive: 0.014. With SDF2 (UniProt Q99470) the log2 fold change was inactive: 0.056. S100A16 (UniProt Q96FQ6) was tested, and the log2 fold change was inactive: 0.081. In the case of SCRIB isoform 3 (UniProt Q14160), the log2 fold change is reported as inactive: 0.254. SCAI isoform 2 (UniProt Q8N9R8) was tested, and the log2 fold change was inactive: 0.012. For SEC22A (UniProt Q96IW7), the log2 fold change was inactive: 0.056. With SCAMP3 isoform 2 (UniProt O14828) the log2 fold change was inactive: 0.035. RTL8C (UniProt A6ZKI3) was tested, and the log2 fold change was inactive: -0.028.
